Source: article PMC8627604
No constants are given. Whether binding was seen depends on the method and setting. In cells and extracts the contact can be indirect. Some binding calls cover weakened binding; strength is not graded here.

The chains behind the UniProt entries cited, without tags or fusion partners. Residues count along the entry.
UniProt P46531, residues 19-2555: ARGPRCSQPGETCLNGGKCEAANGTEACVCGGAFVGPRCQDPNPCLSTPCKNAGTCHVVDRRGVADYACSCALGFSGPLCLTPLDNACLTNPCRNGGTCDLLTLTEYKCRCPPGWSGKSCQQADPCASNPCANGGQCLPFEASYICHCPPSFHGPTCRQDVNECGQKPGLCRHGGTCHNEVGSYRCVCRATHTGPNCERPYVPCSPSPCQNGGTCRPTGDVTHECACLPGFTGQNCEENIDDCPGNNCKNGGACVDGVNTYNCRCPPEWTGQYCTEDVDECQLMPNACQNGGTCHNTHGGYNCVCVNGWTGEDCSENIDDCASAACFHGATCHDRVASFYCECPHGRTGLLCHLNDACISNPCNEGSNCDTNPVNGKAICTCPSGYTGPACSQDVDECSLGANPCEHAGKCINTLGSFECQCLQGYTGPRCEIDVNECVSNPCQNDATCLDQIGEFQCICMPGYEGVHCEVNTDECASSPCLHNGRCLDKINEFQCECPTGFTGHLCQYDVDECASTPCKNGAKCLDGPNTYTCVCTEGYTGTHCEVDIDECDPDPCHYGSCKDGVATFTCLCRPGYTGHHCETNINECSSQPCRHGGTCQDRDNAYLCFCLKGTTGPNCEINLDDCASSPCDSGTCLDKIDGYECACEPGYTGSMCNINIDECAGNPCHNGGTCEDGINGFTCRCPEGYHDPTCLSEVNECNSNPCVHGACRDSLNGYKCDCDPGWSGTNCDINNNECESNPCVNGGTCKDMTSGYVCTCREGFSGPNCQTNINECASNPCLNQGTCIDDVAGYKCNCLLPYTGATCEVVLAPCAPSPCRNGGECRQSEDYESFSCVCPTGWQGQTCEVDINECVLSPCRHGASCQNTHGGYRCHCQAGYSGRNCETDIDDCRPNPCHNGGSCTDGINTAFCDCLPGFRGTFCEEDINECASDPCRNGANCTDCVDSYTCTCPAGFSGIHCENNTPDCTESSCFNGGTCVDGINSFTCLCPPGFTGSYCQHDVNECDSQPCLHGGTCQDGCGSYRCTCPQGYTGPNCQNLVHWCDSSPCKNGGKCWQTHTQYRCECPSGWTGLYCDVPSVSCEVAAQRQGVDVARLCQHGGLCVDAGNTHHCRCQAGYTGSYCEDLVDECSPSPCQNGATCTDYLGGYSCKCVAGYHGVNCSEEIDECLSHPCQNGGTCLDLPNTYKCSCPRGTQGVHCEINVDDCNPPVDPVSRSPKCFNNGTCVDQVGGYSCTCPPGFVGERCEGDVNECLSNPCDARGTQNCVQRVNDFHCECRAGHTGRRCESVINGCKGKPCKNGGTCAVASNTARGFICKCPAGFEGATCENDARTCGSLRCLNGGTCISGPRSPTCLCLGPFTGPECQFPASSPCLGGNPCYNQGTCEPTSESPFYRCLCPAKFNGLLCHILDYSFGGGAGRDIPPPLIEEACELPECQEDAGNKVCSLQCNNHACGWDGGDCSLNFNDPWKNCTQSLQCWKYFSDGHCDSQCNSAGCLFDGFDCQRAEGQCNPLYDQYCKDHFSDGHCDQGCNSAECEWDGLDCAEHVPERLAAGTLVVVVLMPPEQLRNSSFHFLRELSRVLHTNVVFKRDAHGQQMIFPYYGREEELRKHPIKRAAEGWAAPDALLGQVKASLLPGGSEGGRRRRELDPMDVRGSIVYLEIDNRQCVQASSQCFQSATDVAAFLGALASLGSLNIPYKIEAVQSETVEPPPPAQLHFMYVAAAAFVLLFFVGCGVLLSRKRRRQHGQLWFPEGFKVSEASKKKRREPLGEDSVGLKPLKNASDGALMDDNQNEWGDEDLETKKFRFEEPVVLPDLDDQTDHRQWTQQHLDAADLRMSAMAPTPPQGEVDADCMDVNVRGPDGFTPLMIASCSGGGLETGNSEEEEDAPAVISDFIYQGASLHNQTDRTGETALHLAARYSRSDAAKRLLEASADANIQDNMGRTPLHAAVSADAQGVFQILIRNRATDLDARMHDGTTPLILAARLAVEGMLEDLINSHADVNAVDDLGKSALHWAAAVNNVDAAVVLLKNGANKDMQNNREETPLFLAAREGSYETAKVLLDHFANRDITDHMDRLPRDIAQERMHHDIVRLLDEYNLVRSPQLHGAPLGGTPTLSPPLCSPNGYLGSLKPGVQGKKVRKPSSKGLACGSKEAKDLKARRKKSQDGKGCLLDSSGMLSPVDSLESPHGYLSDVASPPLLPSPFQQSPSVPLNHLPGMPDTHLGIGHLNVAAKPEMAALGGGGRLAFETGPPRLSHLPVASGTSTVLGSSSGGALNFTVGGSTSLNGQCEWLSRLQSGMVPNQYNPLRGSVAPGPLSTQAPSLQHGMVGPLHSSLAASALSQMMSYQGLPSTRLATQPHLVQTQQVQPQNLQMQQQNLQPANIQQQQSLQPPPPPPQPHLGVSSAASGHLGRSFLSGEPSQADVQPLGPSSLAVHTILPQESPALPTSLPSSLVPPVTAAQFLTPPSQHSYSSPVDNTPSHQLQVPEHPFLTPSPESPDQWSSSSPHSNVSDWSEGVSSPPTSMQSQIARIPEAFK

T1: Growth arrest-specific 1 (GAS1) (human (endogenous in iPSC-derived NPCs)) (UniProt P54826)
T1 sequence: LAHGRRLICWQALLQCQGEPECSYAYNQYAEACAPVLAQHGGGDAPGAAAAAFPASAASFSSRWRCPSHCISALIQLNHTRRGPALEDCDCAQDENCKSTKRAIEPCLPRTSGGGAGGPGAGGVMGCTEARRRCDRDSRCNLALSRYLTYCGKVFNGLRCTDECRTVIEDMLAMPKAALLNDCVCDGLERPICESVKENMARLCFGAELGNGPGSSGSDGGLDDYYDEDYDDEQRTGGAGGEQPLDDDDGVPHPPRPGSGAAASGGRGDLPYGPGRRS


Tests used:
[1] = molecular target: T1, Growth arrest-specific 1 (GAS1) (human (endogenous in iPSC-derived NPCs)); test: co-IP; total protein lysates from wild-type NPCs; 10 ug/ml goat anti-GAS1 antibody (AF2636, R&D Systems) or non-immune goat IgG control; Pierce Crosslink Magnetic IP/Co-IP Kit; detection by blot
[2] = molecular target: T1, Growth arrest-specific 1 (GAS1) (human (endogenous in iPSC-derived NPCs)); test: proximity ligation; fixed and permeabilized wild-type NPCs; primary antibodies directly conjugated with oligonucleotides (Duolink In Situ Probemaker), rolling circle amplification (Duolink In Situ Detection Reagent Kit Orange); GAS1 KO cells as control
[3] = molecular target: T1, Growth arrest-specific 1 (GAS1) (human (endogenous in iPSC-derived NPCs)); test: as above; remark: listed apart in the source

Molecule	binding [1]	binding [2]	binding [3]
NOTCH receptor 1 (NOTCH1) (from UniProt P46531 19-2555)	binds	binds	
Patched 1 (PTCH1) (receptor, UniProt Q13635 1-1447) MASAGNAAEPQDRGGGGSGCIGAPGRPAGGGRRRRTGGLRRAAAPDRDYLHRPSYCDAAFALEQISKGKATGRKAPLWLRAKFQRLLFKLGCYIQKNCGKFLVVGLLIFGAFAVGLKAANLETNVEELWVEVGGRVSRELNYTRQKIGEEAMFNPQLMIQTPKEEGANVLTTEALLQHLDSALQASRVHVYMYNRQWKLEHLCYKSGELITETGYMDQIIEYLYPCLIITPLDCFWEGAKLQSGTAYLLGKPPLRWTNFDPLEFLEELKKINYQVDSWEEMLNKAEVGHGYMDRPCLNPADPDCPATAPNKNSTKPLDMALVLNGGCHGLSRKYMHWQEELIVGGTVKNSTGKLVSAHALQTMFQLMTPKQMYEHFKGYEYVSHINWNEDKAAAILEAWQRTYVEVVHQSVAQNSTQKVLSFTTTTLDDILKSFSDVSVIRVASGYLLMLAYACLTMLRWDCSKSQGAVGLAGVLLVALSVAAGLGLCSLIGISFNAATTQVLPFLALGVGVDDVFLLAHAFSETGQNKRIPFEDRTGECLKRTGASVALTSISNVTAFFMAALIPIPALRAFSLQAAVVVVFNFAMVLLIFPAILSMDLYRREDRRLDIFCCFTSPCVSRVIQVEPQAYTDTHDNTRYSPPPPYSSHSFAHETQITMQSTVQLRTEYDPHTHVYYTTAEPRSEISVQPVTVTQDTLSCQSPESTSSTRDLLSQFSDSSLHCLEPPCTKWTLSSFAEKHYAPFLLKPKAKVVVIFLFLGLLGVSLYGTTRVRDGLDLTDIVPRETREYDFIAAQFKYFSFYNMYIVTQKADYPNIQHLLYDLHRSFSNVKYVMLEENKQLPKMWLHYFRDWLQGLQDAFDSDWETGKIMPNNYKNGSDDGVLAYKLLVQTGSRDKPIDISQLTKQRLVDADGIINPSAFYIYLTAWVSNDPVAYAASQANIRPHRPEWVHDKADYMPETRLRIPAAEPIEYAQFPFYLNGLRDTSDFVEAIEKVRTICSNYTSLGLSSYPNGYPFLFWEQYIGLRHWLLLFISVVLACTFLVCAVFLLNPWTAGIIVMVLALMTVELFGMMGLIGIKLSAVPVVILIASVGIGVEFTVHVALAFLTAIGDKNRRAVLALEHMFAPVLDGAVSTLLGVLMLAGSEFDFIVRYFFAVLAILTILGVLNGLVLLPVLLSFFGPYPEVSPANGLNRLPTPSPEPPPSVVRFAMPPGHTHSGSDSSDSEYSSQTTVSGLSEELRHYEAQQGAGGPAHQVIVEATENPVFAHSTVVHPESRHHPPSNPRQQPHLDSGSLPPGRQGQQPRRDPPREGLWPPPYRPRRDAFEISTEGHSGPSNRARWGPRGARSHNPRNPASTAMGSSVPGYCQPITTVTASASVTVAVHPPPVPGPGRNPRGGLCPGYPETDHGLFEDPHVPFHVRCERRDSKVEVIELQDVECEERPRGSSSN	binds		binds
